Measured values from PubChem BioAssay AID334 (DTP/NCI, 2004).
The list does not hold the whole screen: it covers a few groups of compounds. Not every dose and run of a compound is shown. T/C gives the treated animals as a percentage of the vehicle group. Some entries give survivors of the animals treated and no T/C: the source files T/C as zero there, which appears to mark a toxic dose or a test without result, not a measured value. Some doses without a T/C left all or most animals alive at the check, yet need not have been tolerated: survival well below the control is almost never listed, so the zero probably covers shortened survival too. Survivors were counted at the toxicity check, usually on the fifth day, unless a day is given; later deaths do not show. Schedule codes are those of the source, read here as Q, the interval in days (D) or hours (H), X, the number of doses. Some schedule codes hold Z or #, which are not explained here. For survival time, the PubChem record calls one and a half times the control and up active, and a quarter to a half above the control has no call in these data; cut-offs in other NCI protocols can differ. Some entries show no survivor count and are marked so; the dose need not have been tolerated.

Test system: CD2F1 mice, intracerebral P388 leukemia, median survival T/C%
Experiment: NCI In Vivo Anticancer Drug Screen. Data for tumor model P388 Leukemia (intracerebral) in CD2F1 (CDF1) mice
Conditions: T/C endpoint: median survival time, vehicle: saline, higher T/C = longer survival
Description: The antitumor activity of compounds was measured in mice bearing transplantable tumors. Survival or tumor size were measured and the results are expressed as the measurement made in the treated group (T) divided by the measurement made in the vehicle treated control group (C). The tumor model used in this assay is P388 Leukemia (intracerebral) in CD2F1 (CDF1) mice

NC1CCCCC1.NP(=O)(O)N(CCCl)CCCl was tested, and the T/C (dose: 33.33 mg/kg/injection, schedule: Q30MX003 (ip)) was 106 % of control, the T/C (dose: 50.0 mg/kg/injection, schedule: Q30MX003 (ip)) was 117 % of control and the T/C (dose: 92.0 mg/kg/injection, schedule: Q01DX001 (ip)) was 107 % of control [survivor count not shown]. For the same compound, the survivor count (dose: 100.0 mg/kg/injection, schedule: Q30MX003 (ip)) was 9 of 10 on day 6, the T/C (dose: 140.0 mg/kg/injection, schedule: Q01DX001 (ip)) was 114 % of control [survivor count not shown] and the survivor count (dose: 150.0 mg/kg/injection, schedule: Q30MX003 (ip)) was 7 of 9 on day 6.
